PubChem BioAssay AID1224830, NIAID | 2016
Assay: 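Genes whose knock-down alters the TNF-alpha reporter response to LPS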 (primary screen). Cells: human THP-1 monocytic leukaemia cells, TNF dual-luciferase reporter clone, PMA-differentiated to macrophage-like cells. Reagents: siRNA pool against human genes, 50 nM. Timing: LPS for 4 h, given about 3 days after siRNA transfection. Treatment: bacterial LPS (TLR4 ligand), 10 ng/ml. Detection: 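Ratio of firefly to renilla light, scaled to the plate median and expressed as a robust z-score per replicate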. Scale: TNF reporter robust z-score: higher = stronger TNF reporter response to LPS. Active means: 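Each well counts as active if its z-score is over 2.8 or under -1.5; controls are left without a call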.
The deposit covers about 18,000 reagents; this is a part drawn at random. About 2,900 of all reagents (16%) were called active. 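Calls are made per well; low scores hint the gene aids the LPS response, high scores that it dampens it.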 Repeated entries: four replicate wells of each siRNA pool.

TMEM179 (GeneID 388021) scored TNF reporter robust z-score -0.69; inactive.
For TMEM179 (GeneID 388021), the entry reads TNF reporter robust z-score 0.3; inactive.
Against TMEM179 (GeneID 388021), the values are TNF reporter robust z-score 1.29; inactive.
With knock-down of FUT1 (GeneID 2523) the results were TNF reporter robust z-score 1.12; inactive.
FUT1 (GeneID 2523) scored TNF reporter robust z-score 0.68; inactive.
Depletion of FUT1 (GeneID 2523) came out at: TNF reporter robust z-score 0.42; inactive.
Against FUT1 (GeneID 2523) the deposit lists TNF reporter robust z-score -0.32; inactive.
ELP2 (GeneID 55250) gave TNF reporter robust z-score 1.71; inactive.
Against ELP2 (GeneID 55250) the deposit lists TNF reporter robust z-score 1.37; inactive.
Silencing of ELP2 (GeneID 55250) gave: TNF reporter robust z-score 1; inactive.
ELP2 (GeneID 55250) scored TNF reporter robust z-score 0.73; inactive.
For KMT2C (GeneID 58508), the values are TNF reporter robust z-score 0.09; inactive.
KMT2C (GeneID 58508) scored TNF reporter robust z-score -0.02; inactive.
Against KMT2C (GeneID 58508), the values are TNF reporter robust z-score -1.29; inactive.
Silencing of KMT2C (GeneID 58508) came out at: TNF reporter robust z-score -0.51; inactive.
With knock-down of SLC22A12 (GeneID 116085), the record shows TNF reporter robust z-score -0.75; inactive.
SLC22A12 (GeneID 116085) scored TNF reporter robust z-score 3.59; active.
SLC22A12 (GeneID 116085) scored TNF reporter robust z-score 0.84; inactive.
SLC22A12 (GeneID 116085) showed TNF reporter robust z-score 1.24; inactive.
For MECP2 (GeneID 4204), the entry reads TNF reporter robust z-score 2.25; inactive.
After knock-down of MECP2 (GeneID 4204), the screen gave TNF reporter robust z-score 2.34; inactive.
Depletion of MECP2 (GeneID 4204) resulted in: TNF reporter robust z-score 1.33; inactive.
After knock-down of MECP2 (GeneID 4204), the record shows TNF reporter robust z-score 1.65; inactive.
Depletion of BCORL1 (GeneID 63035) gave: TNF reporter robust z-score -0.42; inactive.
With knock-down of BCORL1 (GeneID 63035) the results were TNF reporter robust z-score -0.5; inactive.
BCORL1 (GeneID 63035) showed TNF reporter robust z-score -0.1; inactive.
Silencing of BCORL1 (GeneID 63035) gave: TNF reporter robust z-score -0.77; inactive.
Depletion of TBL1XR1 (GeneID 79718) gave: TNF reporter robust z-score 1.78; inactive.
With knock-down of TBL1XR1 (GeneID 79718), the record shows TNF reporter robust z-score 1.09; inactive.
Knock-down of TBL1XR1 (GeneID 79718) gave: TNF reporter robust z-score 2.64; inactive.
TBL1XR1 (GeneID 79718) showed TNF reporter robust z-score 3.32; active.
WNK2 (GeneID 65268) scored TNF reporter robust z-score -0.28; inactive.
Against WNK2 (GeneID 65268), the values are TNF reporter robust z-score 0.26; inactive.
After knock-down of WNK2 (GeneID 65268) the results were TNF reporter robust z-score 1.19; inactive.
WNK2 (GeneID 65268) gave TNF reporter robust z-score 1.52; inactive.
Against OR10J5 (GeneID 127385), the entry reads TNF reporter robust z-score -0.19; inactive.
Silencing of OR10J5 (GeneID 127385) resulted in: TNF reporter robust z-score 0.38; inactive.
OR10J5 (GeneID 127385) gave TNF reporter robust z-score -0.41; inactive.
Silencing of OR10J5 (GeneID 127385) gave: TNF reporter robust z-score 0.85; inactive.
Depletion of KRT24 (GeneID 192666) came out at: TNF reporter robust z-score -0.37; inactive.
Silencing of KRT24 (GeneID 192666) came out at: TNF reporter robust z-score 0.44; inactive.
KRT24 (GeneID 192666) showed TNF reporter robust z-score -0.6; inactive.
Knock-down of KRT24 (GeneID 192666) came out at: TNF reporter robust z-score -0.4; inactive.
OR8G5 (GeneID 219865) scored TNF reporter robust z-score 1.02; inactive.
OR8G5 (GeneID 219865) gave TNF reporter robust z-score -0.04; inactive.
Against OR8G5 (GeneID 219865), the values are TNF reporter robust z-score 0.3; inactive.
Knock-down of OR8G5 (GeneID 219865) resulted in: TNF reporter robust z-score -0.24; inactive.

Called active (from the list above):
SLC22A12 (GeneID 116085) — TNF reporter robust z-score = 3.59; outcome = active
TBL1XR1 (GeneID 79718) — TNF reporter robust z-score = 3.32; outcome = active
